Reference: PMC13469122, “Structural and mechanistic insights into primer synthesis initiation by DNA primase” (Nature Communications, 2026)
Residue numbers refer to the chain shown, from its start. Construct, isoform or probe ends are uncertain for at least one entry. For some of these results: The comparison behind a weaker result is the experiment's own reference, which may not be listed here. For some of these results: At least one verdict was read from the data and is not stated in words by the source. Where a protein sequence is shown, tags need not be part of it.

What was measured:
[1] = target: T1, pRN1 primase (catalytic domain-linker-HBD) (Sulfolobus islandicus plasmid pRN1) (UniProt Q54324); experiment: NMR (E333 shift); details: not fully bound, 25 mM sodium phosphate, 50 mM NaCl, 10 mM MgCl2, pH 7.0, recombinant protein, residues 40-370, protein details: C-terminal His6, not cleaved, single-stranded DNA
T1 sequence (looked up): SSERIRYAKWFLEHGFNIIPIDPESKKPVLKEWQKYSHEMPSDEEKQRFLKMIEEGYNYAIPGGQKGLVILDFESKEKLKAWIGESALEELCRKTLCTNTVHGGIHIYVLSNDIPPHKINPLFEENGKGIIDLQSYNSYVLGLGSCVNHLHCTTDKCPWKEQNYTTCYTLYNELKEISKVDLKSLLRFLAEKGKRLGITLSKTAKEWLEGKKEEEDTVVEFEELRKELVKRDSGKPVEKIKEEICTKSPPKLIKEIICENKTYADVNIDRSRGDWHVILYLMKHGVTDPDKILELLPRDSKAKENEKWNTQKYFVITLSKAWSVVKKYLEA

[2] = target: T2, pRN1 primase helix bundle domain (HBD) (Sulfolobus islandicus plasmid pRN1) (UniProt Q54324); experiment: NMR (G3 imino); details: 25 mM sodium phosphate, 50 mM NaCl, 10 mM MgCl2, pH 7.0, recombinant protein, residues 256-370, single-stranded DNA
T2 sequence (looked up): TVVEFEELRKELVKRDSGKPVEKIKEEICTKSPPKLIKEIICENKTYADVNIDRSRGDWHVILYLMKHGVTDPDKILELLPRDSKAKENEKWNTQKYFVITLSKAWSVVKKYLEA

[3] = target: T1, pRN1 primase (catalytic domain-linker-HBD) (Sulfolobus islandicus plasmid pRN1); experiment: NMR; details: no Mg2+ (binds template less efficiently than with Mg2+); 25 mM sodium phosphate, 50 mM NaCl, 10 mM MgCl2, pH 7.0; recombinant protein; residues 40-370; protein details: C-terminal His6, not cleaved; single-stranded DNA
[4] = target: T3, pRN1 primase K195A (Sulfolobus islandicus plasmid pRN1) (UniProt Q54324); experiment: NMR; details: 2 ATP, then dGTP, 313 K, base-pair transfer to E-site impaired; 25 mM sodium phosphate, 50 mM NaCl, 10 mM MgCl2, pH 7.0; recombinant protein; residues 40-370; protein details: C-terminal His6, not cleaved; single-stranded DNA
T3 sequence (looked up): T1 sequence (looked up) with K156A

GCGTGCTCA [DNAGC]
binding result ([1]; dATP, G-A mismatch): binds more weakly | binding result ([1]; dTTP, G-T mismatch): binds more weakly

GAGTGCTCA [DNAGA]
binding result ([2]; dATP, G-A mismatch): binds | binding result ([2]; dGTP, G-G mismatch): binds | binding result ([1]; dGTP, G-G mismatch): binds more weakly

TCGTGCTCA [DNATC]
binding result ([2]; dATP, stable T-A pair): binds | binding result ([2]; dGTP, T-G mismatch): binds | binding result ([1]; dCTP, T-C mismatch): binds more weakly | binding result ([1]; dTTP, T-T mismatch): binds more weakly

CTGTGCTCA [DNACT]
binding result [3]: binds more weakly | binding result [4]: binds | binding result ([1]; dCTP, C-C mismatch): binds more weakly

ACGTGCTCA [DNAAC]
binding result ([2]; GTP, A-G mismatch): binds | binding result ([2]; dATP, A-A mismatch): binds | binding result ([1]; dATP, A-A mismatch): binds more weakly

CAGTGCTCA [DNACA]
binding result ([1]; dATP, C-A mismatch): binds more weakly
